Experimental data: patent publication US9814732B2, “Ulipristal acetate for prevention and treatment of breast tumors” (LABORATOIRE HRA-PHARMA, priority 2012, dated 2017)
At least one structure is not confirmed: it was looked up by name or label, or the drawing left a doubt.

Key:
Assay type in all cases: cell-based, human
[1] = system: GR target genes (IEX-1, G0S8, cyclin A, BCL2); test: qRT-PCR mRNA expression of GR target genes in HBE cells; settings: DEX and/or UPA 100 nM
Method: (§1) After seeding, cells were cultured for 24 h in serum and phenol red free medium. Then treatments were carried out in a phenol red free medium containing 5% dextran-charcoal stripped serum. Cells were treated with P or DEX (100 nM), alone or in combination with UPA, RU (1 nM to 1 μM) or CDB-3877 (100 nM). Control cells were treated with ethanol, at […] 1:1000 final ethanol concentration alone as vehicle or E2 (10 nM).
(§2) Total RNA was extracted using TriZOL Reagent (Invitrogen, Cergy-Pontoise, France).
(§3) 2 μg of total RNA was subjected to reverse transcription (RT) using random primers for 1 h at 37° C. 2 μl of RT product was diluted (1:10) and subjected to quantitative PCR using sequence specific primers (300 nM) and Brillant SYBR GREEN QPCR master mix (Fermentas, Saint-Rémy-lès-Chevreuse, France) on an Mx3000P apparatus (Agilent Technologies, Massy, France). Conditions were 1 cycle at 95° C. for 10 min followed by 40 cycles at 95° C. for 30 sec, 60° C. for 1 min and 72° C. for 30 sec. Gene expression values were normalized to the housekeeping gene 36B4. Time of steroid treatment was chosen to get the optimal stimulation for a given gene. ALPL and G0S8 mRNA were analyzed after 6 h of treatment. IEX-1, FASN, and BCL2 were analyzed after 24 h of treatment. Cyclin A mRNA was analyzed after 24 h for GR responses or 48 h for PR responses.

MCF-7 cells [2] = test: Tritiated thymidine incorporation (proliferation) in MCF-7 cells; settings: 48 h, 100 nM
Method: as §1
(§4) After 24 h of hormonal treatment, cells were incubated with [methyl-1 3H] thymidine (Perkin Elmer, Courtaboeuf, France) for 48 h or 20 h for KBE or cancer cells, respectively at 37° C. After incubation cells were washed twice with PBS 1× and once with 5% trichloroacetic acid (TCA). Cells were incubated in 5% TCA for 15 min at 4° C. and lysed in NaOH 0.1 N for 30 min at 37° C. The total cell lysate was added to 5 ml of Ecolite scintillation liquid (MP biomedical, Illkirch, France) and radioactivity was counted with a β-counter HIDEX 300SL (ScienceTec, Courtaboeuf, France).

[3] = system: GR target genes (IEX-1, G0S8, cyclin A, BCL2); test: qRT-PCR mRNA expression of GR target genes in MCF-7 cells; settings: DEX and/or UPA 100 nM, 24 h
Method: as §1, §2, §3

HBE cells [4] = test: Tritiated thymidine incorporation (proliferation) in HBE cells; settings: 96 h, 100 nM
Method: as §1, §4

HBE cells [5] = test: Apoptosis, sub-G1 quantification by flow cytometry in HBE cells; settings: 96 h, 100 nM
Method: as §1
(§5) After 96 h or 48 h of hormonal treatment, respectively, for HBE or MCF-7 and T-47D cells, cells were washed in PBS, matrix dissociated with accutase enzyme (PAA laboratory, Les Mureaux, France), and centrifuged 5 minutes at 1350 rpm. Cells were fixed and frozen at −20° C. in 70% ethanol. Before analysis, cells were washed in PBS and stained with 10 μg/ml propidium iodide in PBS (containing 0.835 U/ml RNase A) (Sigma, St Quentin Fallavier, France). For each sample at least 10 000 cells were counted in a BD LSR II flow cytometer (BD Biosciences, Le Pont de Claix, France). After gating out doublets and debris, cycle distribution was analyzed using the ModFit LT software (Verity Software House, USA).

MCF-7 cells [6] = test: Apoptosis, sub-G1 quantification by flow cytometry in MCF-7 cells; settings: 48 h, 100 nM
Method: as §1, §5

For C[C@@H]1C[C@H]2[C@@H]3CCC4=CC(=O)C=C[C@]4(C)[C@@]3(F)[C@@H](O)C[C@]2(C)[C@@]1(O)C(=O)CO [DEX, dexamethasone], the “G0S8 mRNA expression” value ([1]; 6 h) was “DEX-induced up-regulation of G0S8 mRNA”, the “BCL2 mRNA expression (GR response)” value ([1]; 24 h) was “down-regulated by DEX” and the “IEX-1 mRNA expression” value ([1]; 24 h) was “down-regulated by DEX”. For the same compound, the “cyclin A mRNA expression (GR response)” value ([1]; 24 h) was “induced in HBE cells”, the “cell proliferation ([3H] thymidine incorporation), compound alone” value (MCF-7 cells [2]) was “weak anti-proliferative effects” and the “BCL2 mRNA expression (GR response)” value [3] was “down-regulated by DEX”. For the same compound, the “IEX-1 mRNA expression” value [3] was “down-regulated by DEX”, the “cyclin A mRNA expression (GR response)” value [3] was “repressed in MCF-7 cells” and the “cell proliferation ([3H] thymidine incorporation), compound alone” value (HBE cells [4]) was “strong proliferative activity”. For the same compound, the “cell apoptosis (sub-G1 percentage), compound alone” value (HBE cells [5]) was “anti-apoptotic features” and the “cell apoptosis (sub-G1 percentage), compound alone” value (MCF-7 cells [6]) was “pro-apoptotic ability”.
